# PubChem BioAssay AID1259254, NCATS, 2017
# Purpose: 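Genome-wide screen for genes that prevent DNA re-replication in cancer cells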 (primary screen)
# Cell system: human HCT116 colorectal cancer cells
# Knock-down reagent: single siRNA against human genes
# Time to read-out: 3 days
# Read-out: 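Imaged Hoechst DNA stain sorts each cell into a cycle phase by DNA amount; per plate, G2 fraction set to 0% for non-targeting and 100% for GMNN siRNA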
# Reading the numbers: G2 robust z-score and G2 cells, % of GMNN control: higher = more G2 cells, more excess DNA replication; raw share of cells in G2: higher = larger share of cells with G2 DNA content
# Call rule: 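Active siRNAs have a G2 robust z of 5 or more median absolute deviations over the median, which in these data means about 38% or higher of GMNN control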
# This is one part, drawn at random, of about 59,000 reagents tested. In the full data, about 1,550 (2.6%) got an active call. 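G2 share is only a proxy for re-replication; each gene was hit by three separate siRNAs, and active genes were retested.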 Raw values are not corrected between plates. A number with no mark means an inactive call. The numbers tell different reagents against one gene apart. Not given: the amount of reagent.
gene,siRNA no.,G2 robust z-score,"G2 cells, % of GMNN control",raw share of cells in G2 (%)
AVPR2 (GeneID 554),1,-0.912,-3.45,4.61
AVPR2 (GeneID 554),2,1.15,11.1,6.67
AVPR2 (GeneID 554),3,0.336,5.33,6.38
DHX35 (GeneID 60625),1,1.77,15.4,9.82
DHX35 (GeneID 60625),2,-0.666,-1.72,3.74
DHX35 (GeneID 60625),3,-0.662,-1.69,4.95
GALNT8 (GeneID 26290),1,-0.953,-3.73,2.77
GALNT8 (GeneID 26290),2,-0.0166,2.85,7.46
GALNT8 (GeneID 26290),3,0.318,5.21,5.92
IZUMO1 (GeneID 284359),1,0.00323,2.99,4.2
IZUMO1 (GeneID 284359),2,-0.669,-1.74,2.74
IZUMO1 (GeneID 284359),3,-0.92,-3.51,2.36
FBXL20 (GeneID 84961),1,0.464,6.23,6.73
FBXL20 (GeneID 84961),2,-0.00255,2.95,3.93
FBXL20 (GeneID 84961),3,0.0967,3.65,4.08
ST3GAL3 (GeneID 6487),1,-0.0292,2.76,6.61
ST3GAL3 (GeneID 6487),2,1.64,14.5,9.52
ST3GAL3 (GeneID 6487),3,2.02,17.1,9.63
RASSF1 (GeneID 11186),1,-0.401,0.149,3.92
RASSF1 (GeneID 11186),2,13.3 (active),96.6,45.1
RASSF1 (GeneID 11186),3,1.81,15.7,9.42
TMEM139 (GeneID 135932),1,1.06,10.4,8.1
TMEM139 (GeneID 135932),2,-0.646,-1.58,2.6
TMEM139 (GeneID 135932),3,-0.416,0.0404,2.59
KAT6B (GeneID 23522),1,0.94,9.58,10.2
KAT6B (GeneID 23522),2,0.15,4.03,5.5
KAT6B (GeneID 23522),3,-0.161,1.83,4.49
ACOXL (GeneID 55289),1,0.766,8.36,10.1
ACOXL (GeneID 55289),2,-0.392,0.206,4.51
ACOXL (GeneID 55289),3,-0.215,1.45,4.94
KDM6B (GeneID 23135),1,-0.851,-3.02,2.52
KDM6B (GeneID 23135),2,0.756,8.29,9.68
KDM6B (GeneID 23135),3,0.344,5.39,5.6
ALLC (GeneID 55821),1,-0.785,-2.56,3.54
ALLC (GeneID 55821),2,0.645,7.51,7.25
ALLC (GeneID 55821),3,-0.792,-2.6,2.31
CCDC163 (GeneID 126661),1,-0.56,-0.97,3.81
CCDC163 (GeneID 126661),2,0.0904,3.6,4.25
CCDC163 (GeneID 126661),3,-0.647,-1.58,2.01
AEN (GeneID 64782),1,-0.0109,2.89,5.84
AEN (GeneID 64782),2,0.0356,3.22,6.05
AEN (GeneID 64782),3,-0.448,-0.187,2.65
SAMD3 (GeneID 154075),1,-0.816,-2.77,2.61
SAMD3 (GeneID 154075),2,3.39,26.8,12
SAMD3 (GeneID 154075),3,6.13 (active),46.1,17.3
KRTAP4-1 (GeneID 85285),1,0.167,4.14,5.84
KRTAP4-1 (GeneID 85285),2,6.1 (active),45.9,17.4
KRTAP4-1 (GeneID 85285),3,0.445,6.1,4.86
RICTOR (GeneID 253260),1,-0.415,0.0488,3.21
RICTOR (GeneID 253260),2,-0.739,-2.23,2.77
RICTOR (GeneID 253260),3,-0.22,1.42,3.62
SPATA22 (GeneID 84690),1,-0.83,-2.87,3.15
SPATA22 (GeneID 84690),2,0.00214,2.98,4.34
SPATA22 (GeneID 84690),3,0.157,4.07,3.64
UTP20 (GeneID 27340),1,0.968,9.78,7.59
UTP20 (GeneID 27340),2,-0.912,-3.45,3.24
UTP20 (GeneID 27340),3,3.34,26.5,11.6
ALDH18A1 (GeneID 5832),1,0.201,4.38,7.05
ALDH18A1 (GeneID 5832),2,-1.2,-5.5,3.56
ALDH18A1 (GeneID 5832),3,-0.462,-0.28,3.93
TBL2 (GeneID 26608),1,0.442,6.07,5.42
TBL2 (GeneID 26608),2,-1.38,-6.75,1.88
TBL2 (GeneID 26608),3,-0.31,0.787,4.28
QRFP (GeneID 347148),1,-0.142,1.97,4.66
QRFP (GeneID 347148),2,-0.523,-0.713,2.95
QRFP (GeneID 347148),3,-0.101,2.26,5.1
LMOD2 (GeneID 442721),1,-0.433,-0.077,3.59
LMOD2 (GeneID 442721),2,1.08,10.6,7.43
LMOD2 (GeneID 442721),3,-0.143,1.96,3.79
